To fix the notation:
B1: Rpb7; numbered along this chain (parent)
chain: MFFIKDLSLNITLHPSFFGPRMKQYLKTKLLEEVEGSCTGKFGYILCVLDYDNIDIQRGRILPTDGSAEFNVKYRAVVFKPFKGEVVDGTVVSCSQHGFEVQVGPMKVFVTKHLMPQDLTFNAGSNPPSYQSSEDVITIKSRIRVKIEGCISQVSSIHAIGSIKEDYLGAI

The variants in series [1] derive from B1. Nature of the series: log2 fold change of mutant abundance, UV-irradiated vs unirradiated; higher = more UV resistant (enriched after UV). The following applies: with Saccharomyces cerevisiae rad7Δ rad26Δ; UV dose (J/m2): 10; genetic background: rad7Δ rad26Δ rpb7Δ + plasmid RPB7 library; outgrowth: 10 cell divisions. As for the experimental part: (§1)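 Error-prone PCR random mutant library of yeast RPB7 (codons 2-171) on a LEU2 plasmid, shuffled into rad7Δ rad26Δ S. cerevisiae (BJ5465 background) with genomic RPB7 deleted. Cells were irradiated with 10 J/m2 UV (254 nm) or left unirradiated and grown for 10 divisions. Plasmid RPB7 amplicons were Illumina-sequenced and per-codon amino-acid counts were compared UV vs no UV with NOISeq (3 repeats, ARSyNseq batch correction). Positive log2FC means enrichment after UV, i.e. UV resistance / derepressed TCR.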

In series [2] the parent is B1. The series can be described thus: NOISeq theta enrichment statistic, UV-irradiated vs unirradiated (dimensionless); higher = more UV resistant (enriched after UV). The note with it: with Saccharomyces cerevisiae rad7Δ rad26Δ; UV dose (J/m2): 10; genetic background: rad7Δ rad26Δ rpb7Δ + plasmid RPB7 library; outgrowth: 10 cell divisions. On the procedure:
as §1

Single values of this set are uncertain.

MFFIKDLSLNITLHPSFFGPRMKQYLKTKLLEEVEGSCTGKFGYILCVLDYDNIDIQRGRILPTDGSAEFNVKYRAVVFKPFKGEVVDGTVVSCSQHGFEVQVGPMKVFVTKHLMPQDLTFNAGSNPPSYQSSEDVITIKSRIRVKIEGCISQVSSFHAIGSIKEDYLGAI [I157F]: the “log2 fold change of mutant abundance” value in series [1] was -0.549. For the same variant, in series [2], the “NOISeq theta enrichment statistic” value was -1.1.

Take MFFIKDLSLNITLHPSFFGPRMKQYLKTKLLEEVEGSCTGKFGYILCVLDYDNIDIQRGRILPTDGSAEFNVKYRAVVFKPFKGEVVDGTVVICSQHGFEVQVGPMKVFVTKHLMPQDLTFNAGSNPPSYQSSEDVITIKSRIRVKIEGCISQVSSIHAIGSIKEDYLGAI [S93I]: the “log2 fold change of mutant abundance” value in series [1] was -0.0485. Moreover, the “NOISeq theta enrichment statistic” value in series [2] was -0.0473.

Regarding MFFIKDLSLNITLHPSFFGPRMKQYLKTKLLEEVEGSCTGKFGYILCVLDYDNIDIQRGRILPTDGSAESNVKYRAVVFKPFKGEVVDGTVVSCSQHGFEVQVGPMKVFVTKHLMPQDLTFNAGSNPPSYQSSEDVITIKSRIRVKIEGCISQVSSIHAIGSIKEDYLGAI [F70S], in series [1], the “log2 fold change of mutant abundance” value is -0.0807. In addition, in series [2], the “NOISeq theta enrichment statistic” value is -0.141.

With MFFIKDLSLNITLRPSFFGPRMKQYLKTKLLEEVEGSCTGKFGYILCVLDYDNIDIQRGRILPTDGSAEFNVKYRAVVFKPFKGEVVDGTVVSCSQHGFEVQVGPMKVFVTKHLMPQDLTFNAGSNPPSYQSSEDVITIKSRIRVKIEGCISQVSSIHAIGSIKEDYLGAI [H14R], the “log2 fold change of mutant abundance” value in series [1] is -0.092. For the same variant, the “NOISeq theta enrichment statistic” value in series [2] was -0.327.

In the case of MFFIKDLSLNITLHPSFFGPRMKQYLKTKLLEEVEGSCTGKFGYILCVLDYDNIDIQRGRILPTDGSAEFNVKYRAVVFKPFKGEVVDGTVVSCSQHGFEVQSGPMKVFVTKHLMPQDLTFNAGSNPPSYQSSEDVITIKSRIRVKIEGCISQVSSIHAIGSIKEDYLGAI [V103S], the “log2 fold change of mutant abundance” value in series [1] stood at 0.0448. Moreover, the “NOISeq theta enrichment statistic” value in series [2] is 0.051.

Consider MFFIKDLSLNITLHPSFFGPRMKQYLKTKLLEEVEGSCTGKFGYILCVLDYDNIDIQRGRIPPTDGSAEFNVKYRAVVFKPFKGEVVDGTVVSCSQHGFEVQVGPMKVFVTKHLMPQDLTFNAGSNPPSYQSSEDVITIKSRIRVKIEGCISQVSSIHAIGSIKEDYLGAI [L62P], for which the “log2 fold change of mutant abundance” value in series [1] is -0.673. For the same variant, the “NOISeq theta enrichment statistic” value in series [2] was -0.352.

On to MFFIKDLSLNITLHPSFFGPRMKQYLKTKLLEEVEGSCTGKFGYILCVLDYDNIDIQRGRILPTDGSAEFNVKYRAVVFKPFKGEVVDGTVVSCSQHGFEVQVGPMKVFVTKHLMPQDLTFNAGSNPPSYQSSEDVHTIKSRIRVKIEGCISQVSSIHAIGSIKEDYLGAI [I137H], for which the “log2 fold change of mutant abundance” value in series [1] was -0.028. For the same variant, the “NOISeq theta enrichment statistic” value in series [2] is -0.0232.

Regarding MFFIKDLSLNITLHPSFFGPRMKQYLKTKLLEEVEGSCTGKFGYILCVLDYDNIDIQRGRILPTDGSAEFNVKYRAVVFKPFKGEVVDGTVVSCSQHGFEVQVGPMKVFVTKHLMPQDLTFNAGSNPPSYQSSEDVITIRSRIRVKIEGCISQVSSIHAIGSIKEDYLGAI [K140R], the “log2 fold change of mutant abundance” value in series [1] was -0.117. The “NOISeq theta enrichment statistic” value in series [2] was -0.409.

Consider MFFIKDLSLNITLHPSFFGPRMKQYLKTKLLEEVEGSCTGKFGYILCVLDYDNIDIQRGRILPTDGSAEFNVKYRAVVFKPFLGEVVDGTVVSCSQHGFEVQVGPMKVFVTKHLMPQDLTFNAGSNPPSYQSSEDVITIKSRIRVKIEGCISQVSSIHAIGSIKEDYLGAI [K83L], for which the “log2 fold change of mutant abundance” value in series [1] was 0.628. For the same variant, in series [2], the “NOISeq theta enrichment statistic” value came out at 0.609.

For the variant MFFIKDLSLNITLHPSFFGPRMKQYLKTKLLEEVEGSCTGKFDYILCVLDYDNIDIQRGRILPTDGSAEFNVKYRAVVFKPFKGEVVDGTVVSCSQHGFEVQVGPMKVFVTKHLMPQDLTFNAGSNPPSYQSSEDVITIKSRIRVKIEGCISQVSSIHAIGSIKEDYLGAI [G43D], the “log2 fold change of mutant abundance” value in series [1] was -0.163. Further, in series [2], the “NOISeq theta enrichment statistic” value is -0.184.

Turning to MFFIKDLSLNITLHPSFFGPRMKQYLKTKLLEEVEGSCTGKFGYILCVLDYDNIDIQRGRILPTDGSAEFNVKYRAVVFKPFKGEVVDGTVVSCSQHGFEVQVGPMKVFVTKHLMPQDYTFNAGSNPPSYQSSEDVITIKSRIRVKIEGCISQVSSIHAIGSIKEDYLGAI [L119Y], the “log2 fold change of mutant abundance” value in series [1] is 0.0362. Also, the “NOISeq theta enrichment statistic” value in series [2] was 0.0271.

Consider MFFIKDLSLNITLHPSFFGPRMKQYLKTKLLEEVEGSCTGKFGYILCVLDYDNIDIQRGRILPTDGSAEFNVKYRAVVFKPFKGEVVDGTVVSCSQHGFEVQVGPMKVFVTKHLMPQDLTFNAGSNPPSYQSSGDVITIKSRIRVKIEGCISQVSSIHAIGSIKEDYLGAI [E134G], for which the “log2 fold change of mutant abundance” value in series [1] is -0.164. In series [2], the “NOISeq theta enrichment statistic” value was -0.84.

For the variant MFFIKDLSLNITLHPSFFGPRMKQYLKTKLLEEVEGSCTGKFGYILCVLDYDNIDIQRGRILPTEGSAEFNVKYRAVVFKPFKGEVVDGTVVSCSQHGFEVQVGPMKVFVTKHLMPQDLTFNAGSNPPSYQSSEDVITIKSRIRVKIEGCISQVSSIHAIGSIKEDYLGAI [D65E], the “log2 fold change of mutant abundance” value in series [1] is 0.0307. Also, the “NOISeq theta enrichment statistic” value in series [2] was found to be 0.157.

Turning to MFFIKDLSLNITLHPSFFGPRMKQYLKTKLLEEVEGSCTGKFGYILCVLDYDNIDIQRGRILPTDGSAEFNVKFRAVVFKPFKGEVVDGTVVSCSQHGFEVQVGPMKVFVTKHLMPQDLTFNAGSNPPSYQSSEDVITIKSRIRVKIEGCISQVSSIHAIGSIKEDYLGAI [Y74F], in series [1], the “log2 fold change of mutant abundance” value was determined as 0.141. For the same variant, the “NOISeq theta enrichment statistic” value in series [2] was determined as 0.83.

MFFIKDLSLNITLHPSFFGPRMKQYLKTKLLEEVEGSCTGKFGYILCVLDYDNIDIQRGRILPTDGSAEFNVQYRAVVFKPFKGEVVDGTVVSCSQHGFEVQVGPMKVFVTKHLMPQDLTFNAGSNPPSYQSSEDVITIKSRIRVKIEGCISQVSSIHAIGSIKEDYLGAI [K73Q]: in series [1], the “log2 fold change of mutant abundance” value is 0.0951. The “NOISeq theta enrichment statistic” value in series [2] was found to be 0.132.

Regarding MFFIKDLSLNITLHPSFFGPRMKQYLKTKLLEEVEGSCTGKFGYILCVLDYDNIDIQRGRILPTDLSAEFNVKYRAVVFKPFKGEVVDGTVVSCSQHGFEVQVGPMKVFVTKHLMPQDLTFNAGSNPPSYQSSEDVITIKSRIRVKIEGCISQVSSIHAIGSIKEDYLGAI [G66L], in series [1], the “log2 fold change of mutant abundance” value was -0.227. The “NOISeq theta enrichment statistic” value in series [2] is -0.166.

For MFFIKDLSLNITLHPSFFGPRMKQYLKTKLLEEVEGPCTGKFGYILCVLDYDNIDIQRGRILPTDGSAEFNVKYRAVVFKPFKGEVVDGTVVSCSQHGFEVQVGPMKVFVTKHLMPQDLTFNAGSNPPSYQSSEDVITIKSRIRVKIEGCISQVSSIHAIGSIKEDYLGAI [S37P], the “log2 fold change of mutant abundance” value in series [1] is -0.019. The “NOISeq theta enrichment statistic” value in series [2] is -0.0354.

The record behind these values is the supplement of paper PMC10382679.
